Test results reported in patent publication US20030235860A1, “Interactions between AR, ER, TR2, and TR4” (priority 1999, published 2003).
These are yes or no findings as the source states them, for the method shown. Binding seen in cells or lysates may run through a third protein. Some results given as binding are weak or reduced against the parent protein; the word gives no strength. For some of these results: Sequences can lack the tags named with a protein.

Amino acid sequences for entries named in this document (tags omitted). A change or cut given only in a name is not applied to a line headed by its entry.
UniProt Q13772: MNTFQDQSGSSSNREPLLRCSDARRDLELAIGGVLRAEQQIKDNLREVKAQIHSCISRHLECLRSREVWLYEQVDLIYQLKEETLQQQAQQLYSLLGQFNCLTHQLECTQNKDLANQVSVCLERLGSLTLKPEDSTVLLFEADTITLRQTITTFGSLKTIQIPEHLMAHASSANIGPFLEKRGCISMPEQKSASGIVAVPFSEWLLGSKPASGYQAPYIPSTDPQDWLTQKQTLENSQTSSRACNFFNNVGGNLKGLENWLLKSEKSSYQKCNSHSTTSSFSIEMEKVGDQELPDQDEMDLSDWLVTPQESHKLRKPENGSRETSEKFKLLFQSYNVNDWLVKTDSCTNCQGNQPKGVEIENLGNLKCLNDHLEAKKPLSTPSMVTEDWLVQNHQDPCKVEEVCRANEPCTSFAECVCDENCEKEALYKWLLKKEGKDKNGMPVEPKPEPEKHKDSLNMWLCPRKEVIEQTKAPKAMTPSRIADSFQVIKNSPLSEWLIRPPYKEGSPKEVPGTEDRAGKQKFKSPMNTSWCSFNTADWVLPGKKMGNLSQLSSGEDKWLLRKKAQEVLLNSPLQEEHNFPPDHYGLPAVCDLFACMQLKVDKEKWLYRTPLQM
UniProt P03372: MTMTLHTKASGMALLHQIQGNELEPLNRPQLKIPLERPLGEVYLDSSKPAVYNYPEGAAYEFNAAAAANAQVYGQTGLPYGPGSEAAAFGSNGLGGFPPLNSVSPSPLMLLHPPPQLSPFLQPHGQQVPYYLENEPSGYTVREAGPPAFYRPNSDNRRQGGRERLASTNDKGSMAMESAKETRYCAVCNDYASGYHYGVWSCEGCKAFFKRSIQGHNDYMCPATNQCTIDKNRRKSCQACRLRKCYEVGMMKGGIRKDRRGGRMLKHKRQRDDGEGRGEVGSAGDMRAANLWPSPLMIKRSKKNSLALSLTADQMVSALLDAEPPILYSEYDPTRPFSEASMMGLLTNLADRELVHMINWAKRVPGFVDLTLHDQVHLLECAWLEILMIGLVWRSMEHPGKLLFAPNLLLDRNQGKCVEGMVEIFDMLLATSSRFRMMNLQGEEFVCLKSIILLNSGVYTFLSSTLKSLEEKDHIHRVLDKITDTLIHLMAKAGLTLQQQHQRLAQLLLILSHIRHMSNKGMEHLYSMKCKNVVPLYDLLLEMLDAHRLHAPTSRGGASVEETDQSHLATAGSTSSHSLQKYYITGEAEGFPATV

Columns and labels:
[1] = molecular target: T1, GST-TR4 fusion protein (human) (UniProt P49116); assay: GST pull-down, GST-TR4 on beads
T1 sequence: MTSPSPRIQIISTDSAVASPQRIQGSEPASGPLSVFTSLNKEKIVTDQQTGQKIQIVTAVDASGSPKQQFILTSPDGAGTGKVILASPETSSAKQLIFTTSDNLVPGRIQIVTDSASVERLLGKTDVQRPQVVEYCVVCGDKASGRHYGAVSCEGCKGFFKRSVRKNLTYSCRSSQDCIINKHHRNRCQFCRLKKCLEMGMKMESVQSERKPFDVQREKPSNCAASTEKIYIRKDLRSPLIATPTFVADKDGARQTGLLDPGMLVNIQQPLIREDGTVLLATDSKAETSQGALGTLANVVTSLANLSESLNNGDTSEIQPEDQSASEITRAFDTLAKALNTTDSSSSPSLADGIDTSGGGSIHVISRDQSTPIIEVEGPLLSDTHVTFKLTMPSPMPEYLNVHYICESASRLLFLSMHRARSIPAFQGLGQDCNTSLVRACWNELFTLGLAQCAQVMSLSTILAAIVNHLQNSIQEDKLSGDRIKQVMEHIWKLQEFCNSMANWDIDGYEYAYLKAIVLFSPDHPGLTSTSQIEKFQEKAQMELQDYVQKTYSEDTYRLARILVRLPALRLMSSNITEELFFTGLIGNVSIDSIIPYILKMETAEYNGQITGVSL

[2] = molecular target: T1, GST-TR4 fusion protein (human); assay: GST pull-down, GST-TR4 on beads (figure legend)
[3] = molecular target: ARA70 (UniProt Q13772); assay: GST pull-down assay and mammalian two-hybrid assay
[4] = molecular target: T2, TR4 orphan receptor (TR4), full-length (human) (UniProt P49116); assay: GST pull-down, GST-ER-LBD on beads, [35S]-TR4, with or without 1 µM E2
T2 sequence: T1 sequence

binding [1]	binding [2]	binding [3]	binding [4]	Substance
binds	binds	binds	–	estrogen receptor (ER), full-length (from UniProt P03372 1-595)
–	–	–	binds	GST-ER-#3 (aa 312-595 of ER) (from UniProt P03372 312-595)
